# The whole screen tested about 300,000 compounds, of which about 5,400 (1.8%) were called active. Inconclusive means that the source gave no clear call. Such entries were picked first, then a sample of the others. The call rests on the fitted dose curve; tested in HEK293 cells. Potencies beside an inconclusive call are fits to weak or partial responses and may not hold up.
# Test: qHTS for inhibitors of binding or entry into cells for Marburg Virus
# Conditions: Marburg virus pseudotyped entry inhibition, cell reporter; series mostly up to 37.8 µM
# Potency means the concentration at half of the fitted maximal effect.
row,SMILES,Potency
1,COc1ccc(C)cc1NC(=O)CSCc1ccccc1C,"inconclusive: 0.251 µM [inhibitor, full curve, poor fit]"
2,CCC(=O)NC(=S)Nc1ccc(N2CCOCC2)cc1,"inconclusive: 5.01 µM [activator, partial curve]"
3,C=C(C)CN=c1scc(C)n1/N=C/c1ccco1,inactive
4,COc1ccc(NC(=S)N(CCCN2CCN(C)CC2)Cc2cccs2)cc1,"inconclusive: 0.316 µM [inhibitor, partial curve, poor fit]"
5,Cc1ccc(S(=O)(=O)N(C)C)cc1NC(=O)COC(=O)/C(=C/c1ccc(F)cc1)c1cccs1,"inconclusive: 1.3 µM [inhibitor, partial curve, poor fit]"
6,C/C(=N\NC(=O)c1c(Br)c(C)nn1C)c1cccc(NC(=O)C2CCC2)c1,"inconclusive: 2.51 µM [activator, partial curve]"
7,N#Cc1ccc(-c2csc(NC(=O)/C=C/c3cccs3)n2)cc1,"inconclusive: 1.03 µM [inhibitor, full curve]"
8,O=C(NC(CCl)c1ccccc1)c1ccc(Cl)cc1 (configuration not stated),"inconclusive: 2.24 µM [activator, single point]"
9,CCN(CC)c1ccc(NC(=O)Cn2nc(C)n3cccc3c2=O)c(C)c1,"inconclusive: 35.5 µM [activator, single point]"
10,COc1cc(/C=C(\C#N)C(=O)Nc2cccc(C(=O)O)c2)ccc1OCc1ccc(F)cc1,"inconclusive: 2.24 µM [activator, partial curve, poor fit]"
11,O=C(Nc1ccc(O)cc1)c1cccc(Oc2ccc([N+](=O)[O-])cc2)c1,"inconclusive: 3.98 µM [inhibitor, partial curve, poor fit]"
12,CN1C2C=C(N(CCc3ccccc3)C(=O)c3ccc(Cl)cc3)CC1CC2 (configuration not stated),"inconclusive: 15.8 µM [inhibitor, single point]"
13,Cc1cc(C)n2nc(SCC(=O)N3CCC(C(=O)O)CC3)nc2n1,inactive
14,CN(CCCC1CCCC1)C(=O)c1cc(COc2c(F)cccc2F)on1,inactive
15,COc1ccc(CN(C(=O)c2oc3ccccc3c2C)C2CCS(=O)(=O)C2)cc1OC (configuration not stated),"inconclusive: 6.31 µM [activator, partial curve, poor fit]"
16,CCOC(=O)c1c(C)n(C)c2ccc(OCC(O)Cn3c(C)nc4ccccc43)cc12 (configuration not stated),"inconclusive: 23.1 µM [inhibitor, partial curve, poor fit]"
17,CC(=O)Nc1cccc(/C(C)=N/NC(=O)c2c(-c3ccccc3Cl)noc2C)c1,"inconclusive: 3.55 µM [inhibitor, full curve]"
18,CCOC(=O)c1ccc(N2C(=O)C3C(C2=O)C(C(=O)c2ccc(Cl)cc2)N2CCCC32)cc1 (configuration not stated),inactive
19,CSc1nnc2c3ccccc3n(Cc3ccccc3)c2n1,inactive
20,CCC(=O)NC(=S)Nc1ccc(-c2nc3ccccc3s2)cc1,inactive
21,COc1ccc(/C(N)=N/OC(=O)c2c(-c3ccccc3Cl)noc2C)cc1OC,"inconclusive: 35.5 µM [inhibitor, single point]"

# Structural class, the entries above containing two or more sulfur atoms.
row,SMILES,Potency
4,COc1ccc(NC(=S)N(CCCN2CCN(C)CC2)Cc2cccs2)cc1,"inconclusive: 0.316 µM [inhibitor, partial curve, poor fit]"
5,Cc1ccc(S(=O)(=O)N(C)C)cc1NC(=O)COC(=O)/C(=C/c1ccc(F)cc1)c1cccs1,"inconclusive: 1.3 µM [inhibitor, partial curve, poor fit]"
7,N#Cc1ccc(-c2csc(NC(=O)/C=C/c3cccs3)n2)cc1,"inconclusive: 1.03 µM [inhibitor, full curve]"
20,CCC(=O)NC(=S)Nc1ccc(-c2nc3ccccc3s2)cc1,inactive

# Going on with the list:

row,SMILES,Potency
1,COc1cc(C(=S)N2CCOCC2)ccc1OC(=O)c1cc([N+](=O)[O-])cc([N+](=O)[O-])c1,inactive
2,Cn1cc(Br)c(C(=O)NNC(=O)c2ccc(Cl)cc2)n1,"inconclusive: 8.2 µM [activator, partial curve, poor fit]"
3,NC(=O)CNC(=O)C1CCN(S(=O)(=O)c2ccc(-n3cnnn3)cc2)CC1,inactive
4,CC(CCc1ccccc1)NC(=O)c1cccc([N+](=O)[O-])c1 (configuration not stated),"inconclusive: 6.31 µM [activator, single point]"
5,O=[N+]([O-])c1ccc(Cl)c(S(=O)(=O)Nc2cccc(-c3ccc(N4CCCC4)nn3)c2)c1,inactive
6,O=C(N/N=C/c1ccc2cccnc2c1)c1ccco1,"inconclusive: 6.31 µM [inhibitor, partial curve, poor fit]"
7,O=C(NCc1ccccc1)c1ccc(-c2ccccc2C(F)(F)F)o1,"inconclusive: 3.66 µM [activator, partial curve, poor fit]"
8,CCn1nc(C)c(/C=N\NC(=O)c2ccc3c(c2)OCO3)c1C,inactive
9,CCc1nc2ccccc2c(C(=O)OCC(=O)N(CC(C)C)c2c(N)n(Cc3ccccc3)c(=O)[nH]c2=O)c1C,inactive
10,COc1cc(C(C(=O)NC2CCCC2)N(C(=O)c2ccco2)c2ccccc2C(C)=O)cc(OC)c1OC (configuration not stated),"inconclusive: 6.31 µM [inhibitor, single point]"
11,CC(C)(CNC(=O)c1ccc(Cl)c(S(=O)(=O)N2CCc3ccccc3C2)c1)N1CCOCC1,"inconclusive: 11.2 µM [inhibitor, single point]"
12,CN1CCC(OC(=O)c2cccc(Cl)c2)CC1,"inconclusive: 5.62 µM [inhibitor, partial curve, poor fit]"
13,COC(=O)c1ccc(Oc2nc(N(C)C)nc(N3CCOCC3)n2)cc1,"inconclusive: 3.55 µM [inhibitor, single point]"
14,O=C(CSc1nc2ccccc2s1)Nc1ccc2c(c1)OCO2,"inconclusive: 29.1 µM [activator, single point]"
15,CCC1(CC)C(=O)N(C)C(=O)NC1=NCc1ccccc1,"inconclusive: 1.26 µM [activator, single point]"
16,CCn1nnnc1SCC(=O)N1c2ccccc2CCc2ccccc21,"inconclusive: 1.12 µM [inhibitor, full curve, poor fit]"
17,CCc1ccc(S(=O)(=O)NCc2cn3ccsc3n2)s1,inactive
18,O=C(CCc1ccccc1)NNC(=S)Nc1ccc(F)cc1,inactive
19,COc1cc(NC(=O)c2cc(C)nc3c2c(C)nn3-c2ccccc2Cl)cc(OC)c1,"inconclusive: 6.31 µM [inhibitor, partial curve, poor fit]"
20,COc1cc(OC)cc(-c2nnc(SCC(=O)N(Cc3ccccc3)C(C)(C)C)o2)c1,"inconclusive: 20.6 µM [inhibitor, partial curve, poor fit]"
21,O=C(O)c1ccccc1-c1ccccc1C(=O)Nc1ccc(F)cc1,inactive
